{
  "source": "patent US20210267973A1",
  "about": "“COMBINATION OF A TYPE II PROTEIN ARGININE […] INHIBITOR AND AN ICOS BINDING PROTEIN TO TREAT CANCER” (GLAXOSMITHKLINE INTELLECTUAL PROPERTY DEVELOPMENT LIMITED, priority 2018, published 2021)",
  "key": {"MCL cell lines": {"system": "MCL cell lines", "experiment": "6-day growth/death assay in a panel of MCL lines", "assay_type": "cell-based", "from_the_text": "FIG. 18: Activity of PRMT5 inhibitor and ibrutinib as single agents and in combination in MCL cell lines. […] C.\n• The strongest mechanistic link currently described between PRMT5 and cancer is in MCL. PRMT5 is frequently overexpressed in MCL and is highly expressed in the nuclear compartment where it increases levels of histone methylation and silences a subset of tumor suppressor genes. Importantly, cyclin D1, the oncogene that is translocated in the vast majority of MCL patients, associates with PRMT5 and through a cdk4-dependent mechanism increases PRMT5 activity. PRMT5 mediates the suppression of key genes that negatively regulate DNA replication allowing for cyclin D1-dependent neoplastic growth. PRMT5 knockdown inhibits cyclin D1-dependent cell transformation causing death of tumor cells."}, "MCL patients": {"system": "MCL patients", "conditions": "cited from earlier work"}},
  "note": "At least one structure is not confirmed: it was looked up by name or label, or the drawing left a doubt.",
  "data": [
    {"smiles": "C=CC(=O)N1CCC[C@@H](n2nc(-c3ccc(Oc4ccccc4)cc3)c3c(N)ncnc32)C1", "note": "[ibrutinib]", "values": [
      {"measurement": "sensitivity in 6-day growth/death assay", "setting": "MCL cell lines; Mino, Jeko-1", "value": "sensitive"},
      {"measurement": "sensitivity (gIC50) in 6-day growth/death assay", "setting": "MCL cell lines; Z-138, Maver-1 and JVM-2", "value": "resistant"},
      {"measurement": "median progression-free survival", "setting": "MCL patients; MCL patients", "value": "approximately 14 months"},
      {"measurement": "overall response rate", "setting": "MCL patients; relapsed/refractory MCL", "value": "~70", "unit": "%"}
    ]}
  ]
}
